# Library screen at single concentrations

Measurements from “University of Dundee, Small-Polar-MMV Screening Library” (2021), ChEMBL document CHEMBL3988442.

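Growth of Mycobacterium tuberculosis over 3 days (7H9 medium with glucose and tyloxapol); the read-out is not stated. Tested at 50 µM. Higher reads as more growth inhibition (inferred: compounds with an IC50 in retests scored well above the rest). Size under these conditions: about 69,000 compounds, about 760 of them at 50% or above in at least one test.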

Values are the deposited “Percent Effect”, in %. How 0% and 100% were set is not recorded. Most values in the screen are low, and negative values occur. This is an unselected part of the compounds tested. Two or more numbers in one place are separate tests of the same structure; such repeats can differ widely.

compound | effect
CCN(CCn1cccn1)Cc1nc(-c2cccc(C)c2)oc1C | 7.576
COCC1CC2(CCN(Cc3ccccn3)CC2)CN1c1ncccn1.O=C(O)C(F)(F)F.O=C(O)C(F)(F)F.O=C(O)C(F)(F)F (stereo not given) | 19.2 & -0.6329
Cc1cnn(CCNCc2nc(CNC(=O)c3ccccc3)no2)c1 | -0.5955 & -11.37
O=C(NCCNc1ccccn1)N1CCC(O)CC1 | -4.812
c1ncc(-c2cn(CCSc3cnn[nH]3)nn2)cn1 | 3.675 & 23.46
Cc1ccc(F)c(NCc2ccc(C(=O)N(C)C)[nH]2)c1 | 33.41
CC(C)C[C@H](NC(=O)Cn1ccc2c(Cl)cccc21)C(=O)O | 5.605
CC(Cn1cccn1)NCc1nc(-c2ccco2)no1 (stereo not given) | 2.181
c1ccc(-c2nc3c(c(NCCc4c[nH]cn4)n2)CCNC3)cc1 | 45.61 & 66.85
O=C(O)C(F)(F)F.[H][C@@]12C[C@@H](c3nc(C)no3)O[C@]1([H])CN(C(=O)C1CCN(C)CC1)C2 | 14.46
CC(C)(C)n1ncc2c1CCCC2NCc1ccc2ncccc2c1 (stereo not given) | -5.114
Cc1ccc(O)c(C(=O)N2CCOCC2c2c(C)nn(C)c2C)c1 (stereo not given) | 15.98
CC(=O)N1CCC(Cc2cnc(-c3c(C)n[nH]c3C)cn2)C1 (stereo not given) | 43.08
Cc1cc(C2CCCN(S(=O)(=O)c3cn[nH]c3)C2)ccn1 (stereo not given) | -27.98
Cl.O=C(Nc1cccc(CNCc2cccs2)c1)C1CC1 | -17.79
Cc1ncc2c(n1)CCCC2NC(=O)c1ccncc1 (stereo not given) | -53.07
CC(=O)c1ccc(NC(=O)C(C)Cn2cc(Br)cn2)cc1 (stereo not given) | -1.337 & 4.075
[H][C@@]12CCN(C(C)=O)C[C@@]1([H])[C@H](C(=O)Nc1cccnc1C)CCO2 | 12.2
Cc1cc(=O)c(C(=O)N2CCN(C)c3ccccc3C2)c[nH]1 | -17.98
Cc1ccc2nc(CN3CCCC3c3cccnc3)cc(O)c2c1 (stereo not given) | 25.39 & -1.001
COCCN1CCCC2(CCN(Cc3nnc(C4CC4)o3)C2)C1=O (stereo not given) | -5.271
Cc1cc(NC(=O)N(CCO)Cc2ccsc2)no1 | 7.286
Cn1c(N)nnc1SC1CCCN(c2ccccc2F)C1=O (stereo not given) | 20.1
[H][C@]12CCN(C(=O)Cc3ccc(OC)cc3)[C@@]1([H])CCC(=O)N2 | -0.5495 & -9.507
CCN1CCC(c2cncc(N(C)C)n2)CC1 | -17.98
Cc1nc(CN(C)C(=O)c2ccc(Cn3cnnn3)cc2)cs1 | -29.49
CC(C)n1cnc2c1C(C(=O)N(C)C)N(Cc1ccccc1)CC2.O=C(O)C(F)(F)F (stereo not given) | -29.82 & -1.843
CNC(=O)COc1ccc(CNc2c(Cl)cccc2C#N)cc1 | -23.74
COCCN1CCN(CC(=O)N(C)Cc2ccc(C)o2)CC1C (stereo not given) | 14.32
Cc1ccc(CNC(=O)CN2CCOC(Cn3cccn3)C2)s1 (stereo not given) | -23.94
O=C(CN1CCCC1Cn1cncn1)NCCOc1ccccc1 (stereo not given) | -16.16
CCc1nc(C2CCCN(C(=O)c3ccccc3F)C2)no1 (stereo not given) | 13.39 & 7.478
O=C(O)C(F)(F)F.[H][C@@]12CNC(=O)[C@@H](C)[C@]1([H])CN(Cc1ccc3c(c1)OCO3)C2 | -7.909
CCN(CCOC)C(=O)c1ccc2c(c1)nc(N1CC[C@H](O)C1)n2C | -7.619
Cc1cccn2cc(C[S+]([O-])Cc3noc(C(C)C)n3)nc12 (stereo not given) | -5.581
CC(C)c1ncc2c(n1)CN(Cc1nc3c(F)cccc3[nH]1)CC2 | -27.2
O=C(c1ccc2c(c1)OCO2)N1CCCC(n2ccnc2)C1 (stereo not given) | -26.75
CCSc1cc(C(=O)NCC(C)(C)N(C)C)ccn1 | -18.87
[H][C@@]12CCC(=O)N(CCCOC)[C@]1([H])CCN(Cc1ccc3nonc3c1)C2 | 21.23
COc1cc(CNC(=O)Nc2nnc(C(F)(F)F)s2)ccc1O | 29.99
[H][C@]12CCN(C(=O)NC)CC[C@@]1([H])S(=O)(=O)N(Cc1cccc(Cl)c1)C2 | 0.5455 & 3.329
Cc1oncc1C(=O)N1CCC2(CC1)CN(S(C)(=O)=O)c1ccccc12 | 9.573
Cc1nc[nH]c1CN1CCN(C2CCOCC2)CC(C(N)=O)C1 (stereo not given) | -9.576
CN1CCN(c2cc(Sc3cccs3)nc(N)n2)CC1CCO (stereo not given) | -1.405
O=C(CCCNC(=O)c1cnccn1)Nc1ncc[nH]1 | 11.67
CCC(=O)Nc1cccc(OCC(=O)N(C)CCCC2CCCO2)c1 (stereo not given) | -0.5043
O=C(O)C(F)(F)F.O=C(O)C(F)(F)F.[H][C@]12C[C@@H](CN(C)C)N(C(C)=O)[C@@]1([H])CCN(c1ncc(F)cn1)C2 | -10.32 & -16.17
Cc1cccnc1NC(=O)N(CCO)Cc1ccsc1 | 19.61
CCc1nc(CN2CCCN(Cc3nnc(C4CC4)o3)CC2)no1 | 1.842
COCCNc1ccc(CNCc2cnc3nc(C)cc(C)n23)cc1 | -10.77
O=C(CCn1ccc2ccccc21)N1CCC(Nc2cccnn2)CC1 | 6.261
CC(=O)N1CCc2c(nc(-c3cccnc3)nc2N(C)CC(O)CO)C1 (stereo not given) | 15.25 & -5.688
O=C1CCCN1CCN1CCCC(c2ccn[nH]2)C1 (stereo not given) | -7.215
CC(C(=O)N1CCCCC1)N1CCN(c2nccs2)CC1 (stereo not given) | -15.72
Cl.NC(CC1CCCC1)c1ccccc1 (stereo not given) | -26.72
O=C(O)C(F)(F)F.O=C(O)C(F)(F)F.[H][C@]12CCC(=O)N(CCN3CCCC3)[C@@]1([H])CCN2Cc1ccc(C)s1 | -44.45
CCc1nc(N)nc(N2CCCC3(CCN(C)CC3)CC2)c1C | 0.6426 & -10.11
CCOc1cc(C)nc(N2CCN(C(=O)c3ccncc3)CC2)n1 | 0.03294 & -27.17
O=C(NCc1ccccn1)c1nnn(-c2ccc(Br)cc2)n1 | 42.17
O=C1CCSCC(C(=O)N2CCC3(CC2)OCCO3)N1 (stereo not given) | -7.958
O=C(O)C(F)(F)F.O=C(O)C(F)(F)F.[H][C@@]12OCCC[C@]1([H])N(Cc1cccc(C)n1)C[C@@H]2NS(C)(=O)=O | 9.315
CC1CCC2(CC1)Nc1ccccc1CO2 (stereo not given) | -13.67
COc1cccc(-n2nnc(C(=O)N3CCCC3)c2C)c1 | -10.39
CC(C)(C)n1cc(C(=O)N2CCCN(Cc3cccs3)CC2)cn1 | -12.46
CCc1cnc(C)nc1N(C)CCCc1cnn(C)c1 | 5.665
CN1CC(NC(=O)CCCc2cc(Cl)sc2Cl)CCC1=O (stereo not given) | -1.388 & 19.53
CCCNC(=O)C(C)Oc1ccc(F)cc1 (stereo not given) | 13.16
CCOCC(=O)NCC(C)(O)c1cc(C)oc1C (stereo not given) | 4.096 & -21.97
CCS(=O)(=O)c1ncc(CN(C)Cc2ccccc2Cl)n1CCOC | -2.437

Repeated from the top, 7 entries:

| compound | effect |
|---|---|
| `CCN(CCn1cccn1)Cc1nc(-c2cccc(C)c2)oc1C` | 7.576 |
| `COCC1CC2(CCN(Cc3ccccn3)CC2)CN1c1ncccn1.O=C(O)C(F)(F)F.O=C(O)C(F)(F)F.O=C(O)C(F)(F)F` (stereo not given) | 19.2 & -0.6329 |
| `Cc1cnn(CCNCc2nc(CNC(=O)c3ccccc3)no2)c1` | -0.5955 & -11.37 |
| `O=C(NCCNc1ccccn1)N1CCC(O)CC1` | -4.812 |
| `c1ncc(-c2cn(CCSc3cnn[nH]3)nn2)cn1` | 3.675 & 23.46 |
| `Cc1ccc(F)c(NCc2ccc(C(=O)N(C)C)[nH]2)c1` | 33.41 |
| `CC(C)C[C@H](NC(=O)Cn1ccc2c(Cl)cccc21)C(=O)O` | 5.605 |